Source: article PMC8273886
Results are given in words; binding and its absence hold for the method and conditions named. Binding seen in cells or lysates may run through a third protein. Some results given as binding are weak or reduced against the parent protein; the word gives no strength.

The chains behind the UniProt entries cited, without tags or fusion partners.
UniProt P33534: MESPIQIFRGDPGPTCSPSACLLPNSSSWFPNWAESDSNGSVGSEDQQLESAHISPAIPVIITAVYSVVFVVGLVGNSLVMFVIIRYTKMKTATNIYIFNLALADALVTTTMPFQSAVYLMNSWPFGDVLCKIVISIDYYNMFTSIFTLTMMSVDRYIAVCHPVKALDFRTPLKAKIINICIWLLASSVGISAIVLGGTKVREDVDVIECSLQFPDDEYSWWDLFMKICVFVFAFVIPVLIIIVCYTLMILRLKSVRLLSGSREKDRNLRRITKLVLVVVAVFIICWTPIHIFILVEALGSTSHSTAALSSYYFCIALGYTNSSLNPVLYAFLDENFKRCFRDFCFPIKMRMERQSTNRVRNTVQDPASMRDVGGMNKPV
UniProt P32121: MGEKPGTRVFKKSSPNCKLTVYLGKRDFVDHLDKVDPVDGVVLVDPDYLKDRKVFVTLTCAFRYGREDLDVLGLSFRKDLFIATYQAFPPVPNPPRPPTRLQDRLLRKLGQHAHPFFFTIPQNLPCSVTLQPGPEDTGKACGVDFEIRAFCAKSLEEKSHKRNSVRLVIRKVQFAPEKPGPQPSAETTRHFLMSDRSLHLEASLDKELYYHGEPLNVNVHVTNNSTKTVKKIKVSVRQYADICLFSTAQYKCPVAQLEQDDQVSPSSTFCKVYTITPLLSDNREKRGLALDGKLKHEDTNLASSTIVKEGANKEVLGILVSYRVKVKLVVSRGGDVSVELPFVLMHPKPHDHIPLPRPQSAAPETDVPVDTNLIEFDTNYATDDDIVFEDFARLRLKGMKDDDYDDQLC

Molecular target: mouse κ-opioid receptor (KOR) tagged with EGFP (mouse) (UniProt P33534)
Test: FRET or BRET; HEK293 cells co-transfected with human β-arrestin-2 nano-luciferase and mouse KOR-EGFP (1:10); furimazine; read 5 min after adding dyn A 1–13 or helianorphin-19 at 37 °C

- binding: binds
Substance: human β-arrestin-2 fused to nano-luciferase (from UniProt P32121 1-409)
